PubChem BioAssay AID1224830 – NIAID – 2016
Aim: 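Regulators of TLR4 signalling towards TNF-alpha in macrophage-like cells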 (primary screen). Cells: human THP-1 monocytic leukaemia cells, TNF dual-luciferase reporter clone, PMA-differentiated to macrophage-like cells. Reagent: siRNA pool against human genes, 50 nM. Timing: LPS for 4 h, given about 3 days after siRNA transfection. Treatment: bacterial LPS (TLR4 ligand), 10 ng/ml. Read-out: 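Ratio of firefly to renilla light, scaled to the plate median and expressed as a robust z-score per replicate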. Direction: TNF reporter robust z-score: higher = stronger TNF reporter response to LPS. Rule for the call: 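Each well counts as active if its z-score is over 2.8 or under -1.5; controls are left without a call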.
In all, the deposit lists about 18,000 reagents; shown is a random part of them. Over the whole deposit, about 2,900 (16%) got an active call. 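Calls are made per well; low scores hint the gene aids the LPS response, high scores that it dampens it.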 A number with no mark means an inactive call. The numbers tell different reagents against one gene apart. Repeated entries: four replicate wells of each siRNA pool. Reagent sequences are not shown.

gene | reagent | TNF reporter robust z-score
HMMR | 1 | 0.08
HMMR | 1 | 0.96
HMMR | 1 | 0.37
HMMR | 1 | 0.68
SLCO4A1 | 1 | -0.51
SLCO4A1 | 1 | -0.79
SLCO4A1 | 1 | -0.22
SLCO4A1 | 1 | 0.35
LONRF2 | 1 | -2.09 (active)
LONRF2 | 1 | 1.43
LONRF2 | 1 | -0.08
LONRF2 | 1 | -0.99
MLF1 | 1 | -1.35
MLF1 | 1 | -1.09
MLF1 | 1 | -0.71
MLF1 | 1 | 6.55 (active)
SOCS6 | 1 | 2.05
SOCS6 | 1 | 2.38
SOCS6 | 1 | 2.37
SOCS6 | 1 | -0.81
INTS14 | 1 | -0.35
INTS14 | 1 | 0.71
INTS14 | 1 | -0.83
INTS14 | 1 | -0.08
P3H4 | 1 | 1.04
P3H4 | 1 | 1.28
P3H4 | 1 | 0.81
P3H4 | 1 | 0.73
SCGB2A1 | 1 | 0.49
SCGB2A1 | 1 | -0.38
SCGB2A1 | 1 | -0.17
SCGB2A1 | 1 | -0.24
SEC11B | 1 | -0.65
SEC11B | 1 | 0.04
SEC11B | 1 | -0.86
SEC11B | 1 | -0.6
CDK16 | 1 | 1.62
CDK16 | 1 | 0.6
CDK16 | 1 | -0.07
CDK16 | 1 | 0.17
TEX11 | 1 | -1.03
TEX11 | 1 | -0.02
TEX11 | 1 | -0.97
TEX11 | 1 | -0.65
SHCBP1L | 1 | 2.14
SHCBP1L | 1 | 1.87
SHCBP1L | 1 | -0.63
SHCBP1L | 1 | 0.18
HADHA | 1 | -0.45
HADHA | 1 | -0.89
HADHA | 1 | -0.81
HADHA | 1 | -1
CLYBL | 1 | 0.08
CLYBL | 1 | 0.24
CLYBL | 1 | -0.55
CLYBL | 1 | -0.59
RINT1 | 1 | -0.12
RINT1 | 1 | 0.82
RINT1 | 1 | 0.25
RINT1 | 1 | 1.04
IFI16 | 1 | 1.41
IFI16 | 1 | 1.27
IFI16 | 1 | 0.97
IFI16 | 1 | 1.62
DDI2 | 1 | 0.33
DDI2 | 1 | 0.87
DDI2 | 1 | 1.3
DDI2 | 1 | 1.19
DDI2 | 2 | -0.87
DDI2 | 2 | -0.76
DDI2 | 2 | 0.1
DDI2 | 2 | 0.38
VGLL1 | 1 | -1.51 (active)
VGLL1 | 1 | -1.88 (active)
VGLL1 | 1 | -1.32
VGLL1 | 1 | -1.38
MEIOB | 1 | 0.1
MEIOB | 1 | -0.08
MEIOB | 1 | -0.51
MEIOB | 1 | 0.36
COL4A3 | 1 | -0.66
COL4A3 | 1 | -0.52
COL4A3 | 1 | -0.68
COL4A3 | 1 | -0.5
SUGP2 | 1 | -0.25
SUGP2 | 1 | 0.08
SUGP2 | 1 | 0.49
SUGP2 | 1 | 0
SH3GL2 | 1 | 1.19
SH3GL2 | 1 | 0.48
SH3GL2 | 1 | -0.4
SH3GL2 | 1 | 0.22
SLFN5 | 1 | -0.9
SLFN5 | 1 | -0.06
SLFN5 | 1 | -0.14
SLFN5 | 1 | 0.22
LSM10 | 1 | 0.09
LSM10 | 1 | -1.19
LSM10 | 1 | -1.03
LSM10 | 1 | 0.02
ZNF80 | 1 | -1.59 (active)
ZNF80 | 1 | -1.85 (active)
ZNF80 | 1 | -1
ZNF80 | 1 | -0.43
SPART | 1 | 4.38 (active)
SPART | 1 | 2.48
SPART | 1 | -0.34
SPART | 1 | 3.18 (active)
ORM1 | 1 | 0.76
ORM1 | 1 | 1.13
ORM1 | 1 | 0.17
ORM1 | 1 | 1.16
NGRN | 1 | 1.48
NGRN | 1 | 1.45
NGRN | 1 | 1.13
NGRN | 1 | 3.14 (active)
GNG10 | 1 | -1.65 (active)
GNG10 | 1 | -1.43
GNG10 | 1 | -1.03
GNG10 | 1 | -0.54
TAS2R46 | 1 | 0.96
TAS2R46 | 1 | 0.54
TAS2R46 | 1 | -0.65
TAS2R46 | 1 | 0.55
FUS | 1 | 0.05
FUS | 1 | -0.02
FUS | 1 | -0.45
FUS | 1 | 0.51
MRPS18C | 1 | -1.94 (active)
MRPS18C | 1 | -1.46
MRPS18C | 1 | -1.23
MRPS18C | 1 | -1.27
PKHD1 | 1 | 0.4
PKHD1 | 1 | -0.12
PKHD1 | 1 | -0.51
PKHD1 | 1 | 0.15
LOC644006 | 1 | 0.53
LOC644006 | 1 | 0.12
LOC644006 | 1 | 1.17
LOC644006 | 1 | 1.42

Records listed so far marked active, once more:
gene | reagent | TNF reporter robust z-score
LONRF2 | 1 | -2.09 (active)
MLF1 | 1 | 6.55 (active)
VGLL1 | 1 | -1.51 (active)
VGLL1 | 1 | -1.88 (active)
ZNF80 | 1 | -1.59 (active)
ZNF80 | 1 | -1.85 (active)
SPART | 1 | 4.38 (active)
SPART | 1 | 3.18 (active)
NGRN | 1 | 3.14 (active)
GNG10 | 1 | -1.65 (active)
MRPS18C | 1 | -1.94 (active)
